Some of the results follow. These are further read-outs of the screen, such as a control signal, another cell line or another target. No call is given for them. Compounds called inactive in the main read-out are mostly missing here. The note in brackets gives the kind of curve behind each potency; many fits are weak.
Assay: IkB Signaling
Settings: ABC-DLBCL IkBa-CBG/CBR dual luciferase ratio (green luciferase fused to IkBa over red control in OCI-Ly3 lymphoma cells), 4 h
Summary of the method: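 In this assay, an IκBα–CBG68 fusion accumulates when IKK-driven degradation is blocked; native CBR normalizes for cell number. OCI-Ly3 cells were treated 4 h with compound and doxycycline, then green and red light read after Chroma-Glo addition.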

[1] = measured here: control luc red channel unless noted
[2] = measured here: IkB-luc green channel
[3] = measured here: control luc red channel

Cc1cc(Br)ccc1NC(=O)c1c(C)oc2ncnc(N3CCCCC3)c12
AC50 [1]: 25.1 µM [falling, partial curve]

CCN(CC)CCOC(=O)c1ccc(NC(=O)c2cc3cc(OC)ccc3oc2=O)cc1
AC50 [1]: 15.8 µM [falling, single point]

COCCNC(=O)CN1C(=O)COc2ccc(S(=O)(=O)N3CCCC3)cc21
AC50 [1]: 6.31 µM [falling, full curve]

CCc1ccc(NC(=O)Cn2c(=O)n(CCCC(=O)NCCc3ccc(OC)c(OC)c3)c(=O)c3ccccc32)cc1
AC50 [1]: 12.6 µM [falling, partial curve]

COc1ccc(OC)c(N=c2oc3cc(O)ccc3cc2C(N)=O)c1
AC50 [1]: 5.01 µM [falling, partial curve]

CC(=O)NC12CC3CC(C1)CC(C(=O)OCC(=O)c1ccc4c(c1)OCCO4)(C3)C2
AC50 [1]: 25.1 µM [falling, partial curve]

CCOc1ccc(Sc2cc(C(=O)NCc3ccccc3Cl)c3ccccc3n2)cc1
AC50 [1]: 3.98 µM [falling, full curve]

COc1ccccc1N1CCN(c2csc3ccccc3c2=O)CC1
AC50 [1]: 15.8 µM [falling, partial curve]

Cc1cccc(C)c1Nc1c(-c2ccsc2)nc2cccc(C)n12
AC50 [1]: 20 µM [falling, single point]

COc1ccccc1CNC(=O)CCCCn1c(=O)c2ccccc2n(CC(=O)Nc2cccc(Cl)c2)c1=O
AC50 [1]: 3.16 µM [falling, full curve]

CCOc1ccc(/C=C/c2nc(C#N)c(N3CCC(C)CC3)o2)cc1
AC50 [1]: 15.8 µM [falling, single point]

CCc1ccc(Sc2cc(C(=O)NCCCN3CCC(C)CC3)c3ccccc3n2)cc1
AC50 [1]: 39.8 µM [falling, single point]

CCOc1ccc(-c2n[nH]c(C)c2Oc2ccc(OC)cc2)c(O)c1
AC50 [1]: 31.6 µM [falling, single point]

Cc1ccc(-n2ncc3c(N4CCN(c5ccc(F)cc5)CC4)ncnc32)cc1
AC50 [1]: 3.16 µM [falling, partial curve]

O=C(C1CCN(S(=O)(=O)c2cccc3cccnc23)CC1)N1CC=C(c2ccccc2)CC1
AC50 [2]: 39.8 µM [falling, single point] | AC50 [3]: 3.16 µM [falling, full curve]

O=C(c1ccc2nc(-c3ccco3)c(-c3ccco3)nc2c1)N1CCN(c2ccccc2)CC1
AC50 [1]: 15.8 µM [falling, partial curve]

COc1cccc(NC(=O)N(Cc2cn(C)c3ccccc23)C2CCCCCC2)c1
AC50 [1]: 10 µM [falling, partial curve]

N#CC1=C(SCC(=O)NC2CCCCC2)NC(=O)CC1c1ccco1 (stereo not drawn)
AC50 [1]: 10 µM [falling, partial curve]

CCN1CCN(c2cc(C)c3cc(NC(=O)/C=C/c4ccc(C)cc4)ccc3n2)CC1
AC50 [1]: 1 µM [falling, partial curve]

Cc1ccc(C)n1-c1nnc(N2CCCC(C(=O)NCc3cccc(Br)c3)C2)s1 (stereo not drawn)
AC50 [1]: 15.8 µM [falling, single point]

CCNc1nc(-c2ccc(Cl)cc2)cs1
AC50 [1]: 25.1 µM [falling, single point]

CC1=C(C(=O)NCc2ccc(Cl)cc2)C2(CCC(C)CC2)OC1=O (stereo not drawn)
AC50 [1]: 15.8 µM [falling, single point]

COc1ccc(OC)c(Nc2nc(-c3sc(C)nc3C)cs2)c1
AC50 [1]: 10 µM [falling, partial curve]

COc1cc(/C=C\C(=O)N2CCCCC2=O)cc(OC)c1OC
AC50 [1]: 3.16 µM [falling, partial curve]

Cc1c(Cl)cccc1-n1nc(C)c2c(C)cc(=O)n(CC(=O)N3CCCc4ccccc43)c21
AC50 [1]: 15.8 µM [falling, partial curve]

Cc1nc(Nc2nc(-c3ccccc3)cc(=O)[nH]2)nc2ccccc12
AC50 [1]: 0.0794 µM [falling, full curve]

CN1CCN(c2nc(Nc3cccc(C(F)(F)F)c3)nc(N3CCOCC3)n2)CC1
AC50 [1]: 31.6 µM [falling, single point]

CCCOc1ccc(CNC(=O)C2CCN(C(=O)c3sccc3-n3cccc3)CC2)cc1
AC50 [1]: 39.8 µM [falling, single point]

CCCNC(=O)C1CCN(c2nc3ccc(C)cc3[nH]2)CC1
AC50 [1]: 15.8 µM [rising, partial curve]

CCOC(=O)c1ccc2c(c1)N(Cc1ccc(F)cc1Cl)C(=O)c1ccccc1S2
AC50 [1]: 15.8 µM [falling, partial curve]

Cc1cnc(=O)[nH]c1SCC(=O)Nc1cc(C(F)(F)F)ccc1Cl
AC50 [1]: 39.8 µM [falling, single point]

O=C(CNS(=O)(=O)c1ccc(Br)s1)N1CCN(c2ccccc2F)CC1
AC50 [1]: 39.8 µM [falling, single point]

Clc1ccccc1Cn1nnc2c(Nc3ccccc3)ncnc21
AC50 [1]: 25.1 µM [falling, partial curve]

Cc1cccc(NC(=O)Cn2c(=O)oc3ccccc32)c1
AC50 [1]: 12.6 µM [falling, partial curve]

O=C(NC1CCCC1)c1cc(-c2cccs2)on1
AC50 [2]: 12.6 µM [rising, partial curve] | AC50 [3]: 15.8 µM [falling, partial curve]

CCN1CCN(C(=O)c2ccc3c(c2)N(Cc2cc(C)ccc2C)C(=O)c2ccccc2S3=O)CC1 (stereo not drawn)
AC50 [1]: 39.8 µM [falling, single point]

COC(=O)c1cc(NC(=O)CN(c2ccccc2)S(=O)(=O)N(C)C)ccc1Cl
AC50 [1]: 12.6 µM [falling, partial curve]

NS(=O)(=O)c1ccc(CCNc2nc3c(-c4cccc(F)c4)nnn3c3ccc(Cl)cc23)cc1
AC50 [2]: 25.1 µM [rising, single point] | AC50 [3]: 0.1 µM [falling, full curve]

CCOc1ccccc1NC(=O)Cn1nnc2sc3c(c2c1=O)CCC(C(C)(C)C)C3 (stereo not drawn)
AC50 [1]: 15.8 µM [falling, single point]

O=C(CCCCn1c(=O)[nH]c2ccsc2c1=O)N1CCN(c2cccc(Cl)c2)CC1
AC50 [1]: 12.6 µM [falling, partial curve]
